The record followed here is article PMC5481773, “Structural insights into the function of ZRANB3 in replication stress response” (Nature Communications, 2017).

Construct, isoform or probe ends are uncertain for at least one entry. At least one verdict was read from the data and is not stated in words by the source. Where a protein sequence is shown, tags need not be part of it.

This series concerns the target T1, ZRANB3 HNH domain WT (human) (UniProt Q5FWF4).
T1 sequence (looked up): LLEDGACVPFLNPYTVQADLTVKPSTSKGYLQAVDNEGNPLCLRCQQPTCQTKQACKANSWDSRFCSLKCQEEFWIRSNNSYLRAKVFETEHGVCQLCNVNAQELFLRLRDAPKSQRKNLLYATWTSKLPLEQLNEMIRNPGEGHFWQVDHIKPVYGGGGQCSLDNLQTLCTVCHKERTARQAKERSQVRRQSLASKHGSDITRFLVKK
The series is described as follows: EMSA. To be noted: 4 mM EDTA, 4-32 uM protein, EMSA: 50 mM Tris-HCl pH 7.5, 5% glycerol, 1 mM DTT, 0.1 mg/ml BSA, 1 nM DNA, 4 C, 30 min, 5% native PAGE in 0.5x TBE, recombinant protein, residues 871-1079, protein details: N-terminal His6-Trx (pNH-TrxT), label: 5' 32P on strand 1 (S7). On the technique in general: Mobility shift assays separate free from complexed probe on a gel.

Take “CCTCGATCCTACCAACCAGATGACGCGCTGCTACGTGCTACCGGAAGTCG / CGACTTCCGGTAGCACGTAGCAGCGGCTCGCCACGAACTGCACTCTAGGC [EMSA splayed duplex]”: the binding result is recorded as “binds”.
